No constants are given. Whether binding was seen depends on the method and setting. Binding seen in cells or lysates may run through a third protein. Some results given as binding are weak or reduced against the parent protein; the word gives no strength. One block for each binder: values may come before it.
Columns and labels:
[1] = biological target: HDAC2 (human (endogenous in patient-derived BTSC lines)) (UniProt Q92769); test: co-IP; endogenous proteins of BTSC lines (BT67, BT147); cells dual crosslinked (dithiobis(succinimidyl propionate) 30 min, 1% formaldehyde 10 min); IP buffer 50 mM Tris-HCl pH 8.0, 150 mM NaCl, 1.0 mM EDTA, 0.5% Nonidet P-40; 500 ug extract with 5 ug antibody (HDAC1, HDAC2, SMAD3, SKI or SMAD4) overnight at 4 °C, protein G Dynabeads; also sequential co-IP; cells also treated with romidepsin or DMSO (24, 48, 72 h), with SMAD3 KO, HDAC2 KO or SMAD3 overexpression
[2] = biological target: T1, SMAD4 (human (endogenous in patient-derived BTSC lines)), Q13485; test: co-IP; endogenous proteins of BTSC lines (BT67, BT147); cells dual crosslinked (dithiobis(succinimidyl propionate) 30 min, 1% formaldehyde 10 min); IP buffer 50 mM Tris-HCl pH 8.0, 150 mM NaCl, 1.0 mM EDTA, 0.5% Nonidet P-40; 500 ug extract with 5 ug antibody (HDAC1, HDAC2, SMAD3, SKI or SMAD4) overnight at 4 °C, protein G Dynabeads; also sequential co-IP; cells also treated with romidepsin or DMSO (24, 48, 72 h), …; conditions: remark: other sources report otherwise
T1 chain: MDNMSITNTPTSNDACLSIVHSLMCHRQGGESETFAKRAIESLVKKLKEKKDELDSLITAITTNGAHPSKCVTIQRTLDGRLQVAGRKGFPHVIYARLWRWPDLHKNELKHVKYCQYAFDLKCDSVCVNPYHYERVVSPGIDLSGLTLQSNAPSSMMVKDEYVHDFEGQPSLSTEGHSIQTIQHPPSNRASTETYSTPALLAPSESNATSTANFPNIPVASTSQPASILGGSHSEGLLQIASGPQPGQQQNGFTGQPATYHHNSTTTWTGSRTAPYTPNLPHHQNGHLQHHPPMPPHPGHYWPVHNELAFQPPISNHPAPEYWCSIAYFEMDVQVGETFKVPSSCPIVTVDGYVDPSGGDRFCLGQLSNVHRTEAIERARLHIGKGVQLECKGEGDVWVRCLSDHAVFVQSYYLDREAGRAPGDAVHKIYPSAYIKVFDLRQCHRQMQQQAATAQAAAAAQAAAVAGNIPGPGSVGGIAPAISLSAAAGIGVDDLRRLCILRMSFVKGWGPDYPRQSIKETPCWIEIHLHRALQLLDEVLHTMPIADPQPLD

The chains behind the UniProt entries cited, without tags or fusion partners.
UniProt Q92769: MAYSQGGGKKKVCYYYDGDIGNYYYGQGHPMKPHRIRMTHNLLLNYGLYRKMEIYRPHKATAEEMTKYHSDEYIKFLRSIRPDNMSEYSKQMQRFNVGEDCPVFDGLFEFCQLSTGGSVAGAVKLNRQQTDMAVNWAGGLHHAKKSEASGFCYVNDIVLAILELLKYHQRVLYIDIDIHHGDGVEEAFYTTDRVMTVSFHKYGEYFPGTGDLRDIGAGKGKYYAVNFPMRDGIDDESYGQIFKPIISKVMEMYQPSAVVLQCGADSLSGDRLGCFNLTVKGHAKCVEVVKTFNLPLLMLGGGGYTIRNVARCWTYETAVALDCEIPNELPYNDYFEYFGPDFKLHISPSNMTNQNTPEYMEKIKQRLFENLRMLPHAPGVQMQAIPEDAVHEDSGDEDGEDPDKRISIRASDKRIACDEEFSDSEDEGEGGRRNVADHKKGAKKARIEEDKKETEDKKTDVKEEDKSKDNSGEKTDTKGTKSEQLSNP

[3] = biological target: HDAC2 (human (endogenous in patient-derived BTSC lines)) (UniProt Q92769); test: proximity ligation; in situ PLA (Duolink) in adherent BTSCs fixed in 3.7% formaldehyde; pairs of primary antibodies; PLA foci counted in 30 nuclei; romidepsin or vehicle for 24 h

binding [1]: no binding
B1: SNON (protein, UniProt P12757-1 1-684)
chain: MENLQTNFSLVQGSTKKLNGMGDDGSPPAKKMITDIHANGKTINKVPTVKKEHLDDYGEAPVETDGEHVKRTCTSVPETLHLNPSLKHTLAQFHLSSQSSLGGPAAFSARHSQESMSPTVFLPLPSPQVLPGPLLIPSDSSTELTQTVLEGESISCFQVGGEKRLCLPQVLNSVLREFTLQQINTVCDELYIYCSRCTSDQLHILKVLGILPFNAPSCGLITLTDAQRLCNALLRPRTFPQNGSVLPAKSSLAQLKETGSAFEVEHECLGKCQGLFAPQFYVQPDAPCIQCLECCGMFAPQTFVMHSHRSPDKRTCHWGFESAKWHCYLHVNQKYLGTPEEKKLKIILEEMKEKFSMRSGKRNQSKTDAPSGMELQSWYPVIKQEGDHVSQTHSFLHPSYYLYMCDKVVAPNVSLTSAVSQSKELTKTEASKSISRQSEKAHSSGKLQKTVSYPDVSLEEQEKMDLKTSRELCSRLDASISNNSTSKRKSESATCNLVRDINKVGIGLVAAASSPLLVKDVICEDDKGKIMEEVMRTYLKQQEKLNLILQKKQQLQMEVKMLSSSKSMKELTEEQQNLQKELESLQNEHAQRMEEFYVEQKDLEKKLEQIMKQKCTCDSNLEKDKEAEYAGQLAELRQRLDHAEADRQELQDELRQEREARQKLEMMIKELKLQILKSSKTAKE

binding [2]: binds
B2: SMAD3, P84022 1-425 (protein)
chain: MSSILPFTPPIVKRLLGWKKGEQNGQEEKWCEKAVKSLVKKLKKTGQLDELEKAITTQNVNTKCITIPRSLDGRLQVSHRKGLPHVIYCRLWRWPDLHSHHELRAMELCEFAFNMKKDEVCVNPYHYQRVETPVLPPVLVPRHTEIPAEFPPLDDYSHSIPENTNFPAGIEPQSNIPETPPPGYLSEDGETSDHQMNHSMDAGSPNLSPNPMSPAHNNLDLQPVTYCEPAFWCSISYYELNQRVGETFHASQPSMTVDGFTDPSNSERFCLGLLSNVNRNAAVELTRRHIGRGVRLYYIGGEVFAECLSDSAIFVQSPNCNQRYGWHPATVCKIPPGCNLKIFNNQEFAALLAQSVNQGFEAVYQLTRMCTIRMSFVKGWGAEYRRQTVTSTPCWIELHLNGPLQWLDKVLTQMGSPSIRCSSVS

binding [3]: binds
binding [1]: binds
B3: SKI (protein, UniProt P12755 1-728)
chain: MEAAAGGRGCFQPHPGLQKTLEQFHLSSMSSLGGPAAFSARWAQEAYKKESAKEAGAAAVPAPVPAATEPPPVLHLPAIQPPPPVLPGPFFMPSDRSTERCETVLEGETISCFVVGGEKRLCLPQILNSVLRDFSLQQINAVCDELHIYCSRCTADQLEILKVMGILPFSAPSCGLITKTDAERLCNALLYGGAYPPPCKKELAASLALGLELSERSVRVYHECFGKCKGLLVPELYSSPSAACIQCLDCRLMYPPHKFVVHSHKALENRTCHWGFDSANWRAYILLSQDYTGKEEQARLGRCLDDVKEKFDYGNKYKRRVPRVSSEPPASIRPKTDDTSSQSPAPSEKDKPSSWLRTLAGSSNKSLGCVHPRQRLSAFRPWSPAVSASEKELSPHLPALIRDSFYSYKSFETAVAPNVALAPPAQQKVVSSPPCAAAVSRAPEPLATCTQPRKRKLTVDTPGAPETLAPVAAPEEDKDSEAEVEVESREEFTSSLSSLSSPSFTSSSSAKDLGSPGARALPSAVPDAAAPADAPSGLEAELEHLRQALEGGLDTKEAKEKFLHEVVKMRVKQEEKLSAALQAKRSLHQELEFLRVAKKEKLREATEAKRNLRKEIERLRAENEKKMKEANESRLRLKRELEQARQARVCDKGCEAGRLRAKYSAQIEDLQVKLQHAEADREQLRADLLREREAREHLEKVVKELQEQLWPRARPEAAGSEGAAELEP

From publication PMC10439933
